According to patent US7998474B2, “Methods for treating an inflammatory disease of the bowel” (Rowett Research Institute, priority 2001, dated 2011):
These are yes or no findings as the source states them, for the method shown. For part of these data: Binding seen in cells or lysates may run through a third protein. Some results given as binding are weak or reduced against the parent protein; the word gives no strength.

Amino acid sequences for entries named in this document (tags omitted). A change or cut given only in a name is not applied to a line headed by its entry.
UniProt Q04206: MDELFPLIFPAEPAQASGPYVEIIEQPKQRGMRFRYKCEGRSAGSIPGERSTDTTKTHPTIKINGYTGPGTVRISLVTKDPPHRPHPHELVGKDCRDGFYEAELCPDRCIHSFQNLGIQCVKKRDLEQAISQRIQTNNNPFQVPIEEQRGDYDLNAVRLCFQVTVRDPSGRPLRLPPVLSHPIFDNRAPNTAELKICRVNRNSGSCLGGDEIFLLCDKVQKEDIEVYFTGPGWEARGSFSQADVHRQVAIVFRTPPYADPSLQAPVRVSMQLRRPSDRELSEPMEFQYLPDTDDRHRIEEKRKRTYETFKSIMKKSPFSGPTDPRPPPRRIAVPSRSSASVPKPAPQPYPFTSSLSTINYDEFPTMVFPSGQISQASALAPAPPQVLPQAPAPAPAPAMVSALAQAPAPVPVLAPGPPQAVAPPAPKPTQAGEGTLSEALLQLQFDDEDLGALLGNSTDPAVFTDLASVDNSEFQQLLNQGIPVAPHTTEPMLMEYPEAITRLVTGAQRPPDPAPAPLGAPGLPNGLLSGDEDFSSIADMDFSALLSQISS

How the values were obtained:
[1] = target: YFP-RelA (chimeric RelA linked to yellow fluorescent protein) (human) (UniProt Q04206); test: fluorescence microscopy of transfected Caco-2 and Hela cells, and IP (results not shown)
RelA [NF-κB p65] (human) [2] = target: RelA [NF-κB p65] (human) (UniProt Q04206); test: in vitro translation and immunoprecipitation
RelA [NF-κB p65] (human) [3] = target: RelA [NF-κB p65] (human) (UniProt Q04206); test: co-immunoprecipitation from Caco-2 cell lysate, western blot
RelA [NF-κB p65] (human) [4] = target: RelA [NF-κB p65] (human) (UniProt Q04206); test: in vitro translation and immunoprecipitation (FIG. 5B legend)
RelA [NF-κB p65] (human) [5] = target: RelA [NF-κB p65] (human) (UniProt Q04206); test: summary of experimental work (co-immunoprecipitation, co-localisation in Caco-2 cells)

Row | Substance | binding [1] | binding (RelA [NF-κB p65] (human) [2]) | binding (RelA [NF-κB p65] (human) [3]) | binding (RelA [NF-κB p65] (human) [4]) | binding (RelA [NF-κB p65] (human) [5])
1 | CFP-PPARγ (DN) (chimeric construct of the dominant negative mutant of PPARγ and cyan fluorescent protein) (from UniProt P37231 1-477) | binds |  |  |  | 
2 | CFP-PPARγ (chimeric construct of wild type human PPARγ and cyan fluorescent protein) (from UniProt P37231 1-477) | binds |  |  |  | 
3 | peroxisome proliferator-activated receptor gamma (PPARγ) (from UniProt P37231 1-477) |  | binds | binds | binds | binds
